For this assay, the target named is cMyc-mut ELP1 (terminal aspartic acid mutated; ending in LSLLA) (UniProt O95163). Description: co-IP; HEK293T cells transfected with cMyc-ELP1 and FLAG-PP5; lysate (25 mM Tris-HCl pH 7.4, 150 mM NaCl, 1 mM EDTA, 1% NP-40, 5% glycerol) on anti-myc magnetic resin, RT 3 h; Western blots for FLAG, Hsp90 and Hsp70. A general note: In western blotting, separated proteins are transferred to a membrane and probed.

Protein sequences, listed by entry. Tags and fused reporters are not part of them. Lines headed by an entry give the natural chain unless they say otherwise; changes in a name come on top.
UniProt O95163: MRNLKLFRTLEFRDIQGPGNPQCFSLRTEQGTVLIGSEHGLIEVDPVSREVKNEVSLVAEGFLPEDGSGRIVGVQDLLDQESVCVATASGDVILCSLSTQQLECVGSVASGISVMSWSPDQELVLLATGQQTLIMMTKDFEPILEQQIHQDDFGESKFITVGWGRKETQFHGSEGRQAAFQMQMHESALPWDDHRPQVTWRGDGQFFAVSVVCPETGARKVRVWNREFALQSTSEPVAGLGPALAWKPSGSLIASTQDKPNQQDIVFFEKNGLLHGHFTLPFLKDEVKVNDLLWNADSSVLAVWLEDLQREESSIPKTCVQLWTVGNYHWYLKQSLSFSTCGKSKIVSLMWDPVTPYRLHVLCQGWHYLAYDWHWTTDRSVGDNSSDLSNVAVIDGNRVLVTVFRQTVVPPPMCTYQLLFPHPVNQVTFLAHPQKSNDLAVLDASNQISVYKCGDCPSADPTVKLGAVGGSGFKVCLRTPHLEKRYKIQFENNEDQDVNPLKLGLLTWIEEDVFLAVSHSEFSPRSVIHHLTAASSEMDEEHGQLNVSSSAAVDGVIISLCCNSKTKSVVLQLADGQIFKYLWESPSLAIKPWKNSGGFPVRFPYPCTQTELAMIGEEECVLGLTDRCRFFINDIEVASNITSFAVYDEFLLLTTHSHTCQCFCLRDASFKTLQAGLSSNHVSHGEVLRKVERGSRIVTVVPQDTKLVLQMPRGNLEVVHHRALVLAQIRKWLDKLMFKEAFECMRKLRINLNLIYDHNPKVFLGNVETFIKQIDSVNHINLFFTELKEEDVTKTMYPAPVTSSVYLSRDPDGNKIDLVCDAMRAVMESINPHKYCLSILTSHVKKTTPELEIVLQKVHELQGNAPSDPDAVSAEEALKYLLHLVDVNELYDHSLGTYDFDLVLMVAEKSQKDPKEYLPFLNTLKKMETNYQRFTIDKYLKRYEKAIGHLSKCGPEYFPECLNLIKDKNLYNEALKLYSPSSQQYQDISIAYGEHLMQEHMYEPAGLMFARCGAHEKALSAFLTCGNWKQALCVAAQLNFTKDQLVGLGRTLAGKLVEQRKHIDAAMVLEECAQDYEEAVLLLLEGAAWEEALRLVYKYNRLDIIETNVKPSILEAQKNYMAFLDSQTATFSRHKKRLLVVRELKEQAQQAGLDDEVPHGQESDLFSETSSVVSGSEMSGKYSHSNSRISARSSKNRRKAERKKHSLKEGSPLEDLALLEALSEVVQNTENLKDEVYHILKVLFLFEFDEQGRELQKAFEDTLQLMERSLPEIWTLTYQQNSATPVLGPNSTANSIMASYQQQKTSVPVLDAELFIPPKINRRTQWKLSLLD
UniProt P53041: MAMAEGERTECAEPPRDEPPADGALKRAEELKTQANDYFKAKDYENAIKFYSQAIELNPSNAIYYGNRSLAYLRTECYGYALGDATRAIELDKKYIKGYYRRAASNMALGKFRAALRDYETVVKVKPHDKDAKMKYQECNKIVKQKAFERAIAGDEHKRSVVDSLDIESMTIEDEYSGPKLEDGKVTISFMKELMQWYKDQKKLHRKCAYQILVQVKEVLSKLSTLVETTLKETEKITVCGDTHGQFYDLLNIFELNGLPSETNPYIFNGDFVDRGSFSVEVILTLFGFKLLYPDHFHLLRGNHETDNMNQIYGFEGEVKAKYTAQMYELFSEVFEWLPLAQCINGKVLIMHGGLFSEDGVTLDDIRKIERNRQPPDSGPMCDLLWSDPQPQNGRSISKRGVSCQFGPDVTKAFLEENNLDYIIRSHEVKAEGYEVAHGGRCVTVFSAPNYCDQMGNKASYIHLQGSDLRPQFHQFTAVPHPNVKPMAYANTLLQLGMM

In paper PMC11259706 (The Journal of Biological Chemistry, 2024) one finds binding data, which are given here for one substance.

Results are given in words; binding and its absence hold for the method and conditions named. Binding seen in cells or lysates may run through a third protein.

On to “FLAG-PP5 (from UniProt P53041 1-499) (enzyme)”, for which the binding entry is “no binding”.
